From article PMC10326375 come the findings set out here.

By UniProt entry, the sequences of proteins in these tests, tags left out. Where a name states a change or a piece, a line headed by the entry shows the natural chain unless it says otherwise.
UniProt P05067: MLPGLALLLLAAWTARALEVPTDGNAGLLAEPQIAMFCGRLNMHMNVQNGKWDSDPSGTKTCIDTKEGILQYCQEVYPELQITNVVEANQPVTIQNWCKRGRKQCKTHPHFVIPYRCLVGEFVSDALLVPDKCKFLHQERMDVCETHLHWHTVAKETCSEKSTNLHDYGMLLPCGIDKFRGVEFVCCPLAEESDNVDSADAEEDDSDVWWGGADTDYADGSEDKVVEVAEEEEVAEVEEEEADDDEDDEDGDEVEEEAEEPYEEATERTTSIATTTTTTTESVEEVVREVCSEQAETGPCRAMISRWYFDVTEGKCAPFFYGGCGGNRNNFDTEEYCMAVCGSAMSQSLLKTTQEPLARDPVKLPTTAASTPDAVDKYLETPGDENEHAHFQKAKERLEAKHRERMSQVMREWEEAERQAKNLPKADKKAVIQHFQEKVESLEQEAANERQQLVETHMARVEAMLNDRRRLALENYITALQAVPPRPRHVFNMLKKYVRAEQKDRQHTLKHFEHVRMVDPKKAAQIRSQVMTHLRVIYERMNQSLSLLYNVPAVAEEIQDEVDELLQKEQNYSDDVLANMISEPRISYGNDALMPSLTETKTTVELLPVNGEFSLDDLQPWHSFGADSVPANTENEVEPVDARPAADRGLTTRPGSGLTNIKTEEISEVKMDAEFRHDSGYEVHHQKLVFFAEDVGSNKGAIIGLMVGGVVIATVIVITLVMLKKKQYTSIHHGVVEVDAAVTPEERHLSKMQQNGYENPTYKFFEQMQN

For at least one entry, the source does not settle the construct or the ends of the probe. At least one verdict was read from the data and is not stated in words by the source.

The target of this series is Amyloid-beta 42 aggregates (sonicated fibrils) (UniProt P05067). Nature of the series: single-molecule imaging (AD-PAINT, TIRF). To be noted: 100 nM Aptamer-DS1, 1 nM IS1-cy3B, 5 uM thioflavin-T (unit printed as mM in the extracted text, probably a lost mu); 1xPBS with 100 nM Aptamer-DS1, 1 nM IS1-cy3B and thioflavin-T; aggregates adsorbed on glass coverslip; aggregate adsorption at room temperature; recombinant protein; folded or branched DNA.

As for “GCCTGTGGTGTTGGGGCGGGTGCGTTATACATCTA [Aptamer-DS1]”, the binding result is given as “binds”.
